Our source for the binding values is publication PMC4632290.

By UniProt entry, the sequences of proteins in these tests, tags left out.
UniProt P53805: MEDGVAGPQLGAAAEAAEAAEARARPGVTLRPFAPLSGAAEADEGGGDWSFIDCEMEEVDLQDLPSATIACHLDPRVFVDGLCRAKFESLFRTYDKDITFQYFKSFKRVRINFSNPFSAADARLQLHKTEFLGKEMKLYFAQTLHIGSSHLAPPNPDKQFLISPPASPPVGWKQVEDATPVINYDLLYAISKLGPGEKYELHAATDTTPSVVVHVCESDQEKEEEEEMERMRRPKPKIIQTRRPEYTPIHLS
UniProt P25963: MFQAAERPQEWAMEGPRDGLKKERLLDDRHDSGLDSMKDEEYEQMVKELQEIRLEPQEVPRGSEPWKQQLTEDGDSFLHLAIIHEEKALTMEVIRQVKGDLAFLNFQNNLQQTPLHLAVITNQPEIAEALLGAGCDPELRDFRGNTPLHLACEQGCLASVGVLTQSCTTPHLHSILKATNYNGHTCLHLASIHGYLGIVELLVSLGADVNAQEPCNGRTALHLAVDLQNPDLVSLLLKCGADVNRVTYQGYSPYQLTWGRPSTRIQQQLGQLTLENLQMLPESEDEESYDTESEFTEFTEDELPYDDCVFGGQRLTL

This experiment has as its target endogenous RCAN1 (human (endogenous in HEK293)) (UniProt P53805). Nature of the experiment: co-IP; untransfected HEK293 cells, endogenous proteins; DCT3 antibody against the RCAN1 C terminus as pull-down antibody, anti-IκBα as detection antibody (Figure 6c).

Results are given in words; binding and its absence hold for the method and conditions named. Binding seen in cells or lysates may run through a third protein. Some entries that bind do so weakly or less than the wild type.

Consider “inhibitor of κBα (IκBα), endogenous (from UniProt P25963 1-317)”, for which the binding entry is listed as “binds”.
